# No constants are given. Whether binding was seen depends on the method and setting. Binding can be weak; no strength is given.
# Biological target: T1, AgrA full length (AgrAFL) (Staphylococcus aureus) (UniProt P0A0I7)
# T1 sequence: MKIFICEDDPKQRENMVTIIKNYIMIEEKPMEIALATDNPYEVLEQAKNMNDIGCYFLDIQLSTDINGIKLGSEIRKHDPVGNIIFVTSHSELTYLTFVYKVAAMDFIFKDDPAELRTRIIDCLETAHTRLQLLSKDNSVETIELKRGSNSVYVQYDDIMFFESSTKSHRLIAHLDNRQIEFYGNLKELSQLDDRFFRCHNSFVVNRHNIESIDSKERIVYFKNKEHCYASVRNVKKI
# Experiment: BLI; AgrAFL (ligand) immobilised on amine reactive 2nd generation (AR2G) tips; AgrC proteins as analytes at different concentrations; 20 mM HEPES pH 7.6, 200 mM KCl, 2% glycerol; AgrC proteins incubated separately with 5 uM DTT and H2O2; Octet Data Analysis Software v 8.0; both purified
substance,measurement,value
recombinant wild-type AgrC (cytosolic domain) (Staphylococcus aureus) (domain or fragment),binding,binds
